# Test results: PubChem BioAssay AID248 (DTP/NCI, 2004)
# The list is a part of this screen's results and no random one: it covers a few groups of compounds. Not every dose and run of a compound is shown. T/C: endpoint of the treated group in % of that of the vehicle group. Some doses have a count of surviving animals in place of a T/C: the source holds a T/C of zero for them, seemingly a mark for toxic or unscored doses. Some doses without a T/C left all or most animals alive at the check, yet need not have been tolerated: the source hardly ever lists a survival T/C far under the control, and the zero likely stands for such cases as well. Survivors were counted at the toxicity check, usually on the fifth day, unless a day is given; later deaths do not show. Schedule codes are those of the source, taken here to give the interval after Q, in days (D) or hours (H), and the number of doses after X. Some schedules carry Z or #; the key to these is not given. Some complexes appear as separate parts, the way the source draws them; their charges need not add up. Where survival is the endpoint, the PubChem record calls one and a half times the control and up active, and a quarter to a half above the control has no call in these data; cut-offs in other NCI protocols can differ. Some doses were run more than once; the values are given in rising order. Some entries show no survivor count and are marked so; the dose need not have been tolerated. Some T/C values are followed by the survivors on the day toxicity was checked, most often the fifth; where neither a count nor a note follows, no animal had died by that day.
# Test system: L1210 leukemia ip in BDF1 mice, survival T/C
# Assay: NCI In Vivo Anticancer Drug Screen. Data for tumor model L1210 Leukemia (intraperitoneal) in B6D2F1 (BDF1) mice
# Conditions: T/C endpoint: mean survival time, higher T/C = longer survival
# [1] = dose: 100.0 mg/kg/injection, schedule: Q04DX003 (ip), vehicle: saline
# [2] = dose: 200.0 mg/kg/injection, schedule: Q04DX003 (ip), vehicle: saline
# [3] = dose: 400.0 mg/kg/injection, schedule: Q04DX003 (ip), vehicle: saline
# [4] = dose: 100.0 mg/kg/injection, schedule: Q04DX002 (ip), vehicle: saline
# [5] = dose: 200.0 mg/kg/injection, schedule: Q04DX002 (ip), vehicle: saline
# [6] = dose: 400.0 mg/kg/injection, schedule: Q04DX002 (ip), vehicle: saline
# [7] = dose: 50.0 mg/kg/injection, schedule: Q01DX001 (ip), vehicle: saline with Tween-80
# [8] = dose: 100.0 mg/kg/injection, schedule: Q01DX001 (ip), vehicle: saline with Tween-80
# [9] = dose: 200.0 mg/kg/injection, schedule: Q01DX001 (ip), vehicle: saline with Tween-80
# [10] = dose: 400.0 mg/kg/injection, schedule: Q01DX001 (ip), vehicle: saline with Tween-80
structure (smiles),measurement,setting,value
O=P1(N(CCCl)CCCl)OCC2CCCN21 (stereo not given),T/C,"dose: 22.5 mg/kg/injection, schedule: Q01DX009 (ip), vehicle: saline",93 % of control [5 of 6 alive]
same,T/C,"dose: 31.25 mg/kg/injection, schedule: Q01DX Z (ip), vehicle: saline",103 % of control
same,T/C,"dose: 62.5 mg/kg/injection, schedule: Q01DX Z (ip), vehicle: saline",108 % of control
same,T/C,"dose: 90.0 mg/kg/injection, schedule: Q01DX009 (ip), vehicle: saline",96 % of control
same,T/C,"dose: 90.0 mg/kg/injection, schedule: Q01DX Z (ip), vehicle: saline",96 % of control
same,T/C,"dose: 125.0 mg/kg/injection, schedule: Q01DX Z (ip), vehicle: saline",103 % of control
same,T/C,"dose: 135.0 mg/kg/injection, schedule: Q01DX Z (ip), vehicle: saline",100 % of control
same,T/C,"dose: 204.0 mg/kg/injection, schedule: Q01DX Z (ip), vehicle: saline",121 % of control
same,T/C,"dose: 220.0 mg/kg/injection, schedule: Q01DX001 (ip), vehicle: saline",124 % of control
same,T/C,"dose: 250.0 mg/kg/injection, schedule: Q01DX Z (ip), vehicle: saline",117 % of control
same,T/C,"dose: 400.0 mg/kg/injection, schedule: Q01DX001 (ip), vehicle: saline",126 % of control
same,T/C,"dose: 459.0 mg/kg/injection, schedule: Q01DX Z (ip), vehicle: saline",98 % of control [4 of 6 alive]
same,survivor count,"dose: 500.0 mg/kg/injection, schedule: Q01DX Z (ip), vehicle: saline",0 of 6
same,T/C,"dose: 600.0 mg/kg/injection, schedule: Q01DX001 (ip), vehicle: saline",126 % of control [4 of 6 alive]
same,survivor count,"dose: 689.0 mg/kg/injection, schedule: Q01DX Z (ip), vehicle: saline",0 of 6
O=P(NCCCl)(NCCCl)Nc1ncccn1,T/C,"dose: 100.0 mg/kg/injection, schedule: Q01DX001 (sc), vehicle: carboxymethylcellulose (CMC)",105 % of control
same,T/C,"dose: 200.0 mg/kg/injection, schedule: Q01DX001 (sc), vehicle: carboxymethylcellulose (CMC)",103 % of control
same,T/C,"dose: 400.0 mg/kg/injection, schedule: Q01DX001 (sc), vehicle: carboxymethylcellulose (CMC)",103 % of control
CCOP(=O)(OCC)C1CN1 (stereo not given),T/C,[1],110 % of control
same,T/C,[2],108 % of control
same,T/C,[3],110 % of control
O=[N+]([O-])c1ccc(Nc2ccc(Oc3ccc([N+](=O)[O-])cc3[N+](=O)[O-])cc2)c([N+](=O)[O-])c1,T/C,"dose: 100.0 mg/kg/injection, schedule: Q01DX009 (ip), vehicle: Klucel (hydroxypropylcellulose) (HPC)",96 % of control [5 of 6 alive]
same,T/C,"dose: 100.0 mg/kg/injection, schedule: Q04DX003 (ip), vehicle: Klucel (hydroxypropylcellulose) (HPC)",95 % of control
same,T/C,"dose: 200.0 mg/kg/injection, schedule: Q01DX009 (ip), vehicle: Klucel (hydroxypropylcellulose) (HPC)",100 % of control
same,T/C,"dose: 200.0 mg/kg/injection, schedule: Q04DX003 (ip), vehicle: Klucel (hydroxypropylcellulose) (HPC)",88 % of control
same,T/C,"dose: 400.0 mg/kg/injection, schedule: Q01DX009 (ip), vehicle: Klucel (hydroxypropylcellulose) (HPC)",98 % of control [5 of 6 alive]
same,T/C,"dose: 400.0 mg/kg/injection, schedule: Q04DX003 (ip), vehicle: Klucel (hydroxypropylcellulose) (HPC)",95 % of control
CCO[P+](=O)O.Nc1nc(N)nc(N)n1,T/C,"dose: 100.0 mg/kg/injection, schedule: Q01DX009 (ip), vehicle: saline",91 % of control [5 of 6 alive]
same,survivor count,"dose: 200.0 mg/kg/injection, schedule: Q01DX009 (ip), vehicle: saline",5 of 6
same,T/C,"dose: 400.0 mg/kg/injection, schedule: Q01DX009 (ip), vehicle: saline",87 % of control [5 of 6 alive]
ClCCN1Cc2ccccc2C1,T/C,"dose: 25.0 mg/kg/injection, schedule: Q04DX002 (ip), vehicle: saline",101 % of control
same,T/C,"dose: 50.0 mg/kg/injection, schedule: Q04DX002 (ip), vehicle: saline",101 % of control
same,T/C,[4],92 and 101 % of control
same,survivor count,[5],2 of 3
same,survivor count,[6],0 of 3
O=[N+]([O-])c1ccc(NCCNc2ccc([N+](=O)[O-])cc2[N+](=O)[O-])c([N+](=O)[O-])c1,T/C,[4],97 % of control
same,T/C,[5],93 % of control
same,T/C,[6],93 % of control
O=[N+]([O-])c1ccc(N/N=C\c2ccc(/C=N/Nc3ccc([N+](=O)[O-])cc3[N+](=O)[O-])cc2)c([N+](=O)[O-])c1,T/C,"dose: 6.25 mg/kg/injection, schedule: Q01DX001 (ip), vehicle: saline with Tween-80",98 % of control
same,T/C,"dose: 12.5 mg/kg/injection, schedule: Q01DX001 (ip), vehicle: saline with Tween-80",98 % of control
same,T/C,"dose: 25.0 mg/kg/injection, schedule: Q01DX001 (ip), vehicle: saline with Tween-80",91 % of control
same,survivor count,[7],3 of 3
same,T/C,[8],90 % of control
same,survivor count,[8],3 of 3
same,survivor count,[9],3 of 3
same,T/C,[10],90 % of control
Cn1ccc2ccccc21.O=[N+]([O-])c1cc([N+](=O)[O-])cc([N+](=O)[O-])c1,T/C,"dose: 50.0 mg/kg/injection, schedule: Q04DX003 (ip), vehicle: saline with Tween-80",100 % of control [survivor count not shown]
same,T/C,"dose: 100.0 mg/kg/injection, schedule: Q04DX003 (ip), vehicle: saline with Tween-80",100 % of control [survivor count not shown]
same,T/C,"dose: 200.0 mg/kg/injection, schedule: Q04DX003 (ip), vehicle: saline with Tween-80",96 % of control [survivor count not shown]
C[CH2][Ge]([C]#N)([CH2]C)[CH2]C,T/C,"dose: 6.25 mg/kg/injection, schedule: Q04DX003 (ip), vehicle: saline",101 % of control
same,T/C,"dose: 12.5 mg/kg/injection, schedule: Q04DX003 (ip), vehicle: saline",100 % of control
same,survivor count,"dose: 25.0 mg/kg/injection, schedule: Q04DX003 (ip), vehicle: saline",0 of 6
same,survivor count,"dose: 50.0 mg/kg/injection, schedule: Q04DX003 (ip), vehicle: saline",0 of 6
same,survivor count,[1],0 of 6
same,survivor count,[2],0 of 6
same,survivor count,[3],0 of 6
ClCCN(CCCl)/N=N/c1nn[nH]n1,T/C,[7],101 % of control
same,T/C,[8],101 % of control
same,T/C,[9],104 % of control
same,T/C,[10],93 % of control
